Assay results published in patent publication US8883856B2, “Compositions and methods for the treatment of inflammatory diseases using topoisomerase inhibitors” (priority 2000, dated 2014).
At least one compound was matched to its structure with a doubt left.

Assay: In vitro drug release from polymeric formulations
Assay type: physicochemical

O=C1C=CC(=O)c2c(O)cccc21 [juglone]
drug release profile (polycaprolactone microspheres, PBS pH 7.4, 37° C.): initial burst of drug release followed by a slow sustained release | drug release profile (polycaprolactone paste, PBS, 37° C.): initial burst of drug release followed by a slow sustained release
